Laboratory results as given in publication PMC7801453.
These are yes or no findings as the source states them, for the method shown. Binding seen in cells or lysates may run through a third protein. Some entries that bind do so weakly or less than the wild type. Where a sequence is shown, tags or fusion partners need not be part of it.

The chains behind the UniProt entries cited, without tags or fusion partners.
UniProt O14686: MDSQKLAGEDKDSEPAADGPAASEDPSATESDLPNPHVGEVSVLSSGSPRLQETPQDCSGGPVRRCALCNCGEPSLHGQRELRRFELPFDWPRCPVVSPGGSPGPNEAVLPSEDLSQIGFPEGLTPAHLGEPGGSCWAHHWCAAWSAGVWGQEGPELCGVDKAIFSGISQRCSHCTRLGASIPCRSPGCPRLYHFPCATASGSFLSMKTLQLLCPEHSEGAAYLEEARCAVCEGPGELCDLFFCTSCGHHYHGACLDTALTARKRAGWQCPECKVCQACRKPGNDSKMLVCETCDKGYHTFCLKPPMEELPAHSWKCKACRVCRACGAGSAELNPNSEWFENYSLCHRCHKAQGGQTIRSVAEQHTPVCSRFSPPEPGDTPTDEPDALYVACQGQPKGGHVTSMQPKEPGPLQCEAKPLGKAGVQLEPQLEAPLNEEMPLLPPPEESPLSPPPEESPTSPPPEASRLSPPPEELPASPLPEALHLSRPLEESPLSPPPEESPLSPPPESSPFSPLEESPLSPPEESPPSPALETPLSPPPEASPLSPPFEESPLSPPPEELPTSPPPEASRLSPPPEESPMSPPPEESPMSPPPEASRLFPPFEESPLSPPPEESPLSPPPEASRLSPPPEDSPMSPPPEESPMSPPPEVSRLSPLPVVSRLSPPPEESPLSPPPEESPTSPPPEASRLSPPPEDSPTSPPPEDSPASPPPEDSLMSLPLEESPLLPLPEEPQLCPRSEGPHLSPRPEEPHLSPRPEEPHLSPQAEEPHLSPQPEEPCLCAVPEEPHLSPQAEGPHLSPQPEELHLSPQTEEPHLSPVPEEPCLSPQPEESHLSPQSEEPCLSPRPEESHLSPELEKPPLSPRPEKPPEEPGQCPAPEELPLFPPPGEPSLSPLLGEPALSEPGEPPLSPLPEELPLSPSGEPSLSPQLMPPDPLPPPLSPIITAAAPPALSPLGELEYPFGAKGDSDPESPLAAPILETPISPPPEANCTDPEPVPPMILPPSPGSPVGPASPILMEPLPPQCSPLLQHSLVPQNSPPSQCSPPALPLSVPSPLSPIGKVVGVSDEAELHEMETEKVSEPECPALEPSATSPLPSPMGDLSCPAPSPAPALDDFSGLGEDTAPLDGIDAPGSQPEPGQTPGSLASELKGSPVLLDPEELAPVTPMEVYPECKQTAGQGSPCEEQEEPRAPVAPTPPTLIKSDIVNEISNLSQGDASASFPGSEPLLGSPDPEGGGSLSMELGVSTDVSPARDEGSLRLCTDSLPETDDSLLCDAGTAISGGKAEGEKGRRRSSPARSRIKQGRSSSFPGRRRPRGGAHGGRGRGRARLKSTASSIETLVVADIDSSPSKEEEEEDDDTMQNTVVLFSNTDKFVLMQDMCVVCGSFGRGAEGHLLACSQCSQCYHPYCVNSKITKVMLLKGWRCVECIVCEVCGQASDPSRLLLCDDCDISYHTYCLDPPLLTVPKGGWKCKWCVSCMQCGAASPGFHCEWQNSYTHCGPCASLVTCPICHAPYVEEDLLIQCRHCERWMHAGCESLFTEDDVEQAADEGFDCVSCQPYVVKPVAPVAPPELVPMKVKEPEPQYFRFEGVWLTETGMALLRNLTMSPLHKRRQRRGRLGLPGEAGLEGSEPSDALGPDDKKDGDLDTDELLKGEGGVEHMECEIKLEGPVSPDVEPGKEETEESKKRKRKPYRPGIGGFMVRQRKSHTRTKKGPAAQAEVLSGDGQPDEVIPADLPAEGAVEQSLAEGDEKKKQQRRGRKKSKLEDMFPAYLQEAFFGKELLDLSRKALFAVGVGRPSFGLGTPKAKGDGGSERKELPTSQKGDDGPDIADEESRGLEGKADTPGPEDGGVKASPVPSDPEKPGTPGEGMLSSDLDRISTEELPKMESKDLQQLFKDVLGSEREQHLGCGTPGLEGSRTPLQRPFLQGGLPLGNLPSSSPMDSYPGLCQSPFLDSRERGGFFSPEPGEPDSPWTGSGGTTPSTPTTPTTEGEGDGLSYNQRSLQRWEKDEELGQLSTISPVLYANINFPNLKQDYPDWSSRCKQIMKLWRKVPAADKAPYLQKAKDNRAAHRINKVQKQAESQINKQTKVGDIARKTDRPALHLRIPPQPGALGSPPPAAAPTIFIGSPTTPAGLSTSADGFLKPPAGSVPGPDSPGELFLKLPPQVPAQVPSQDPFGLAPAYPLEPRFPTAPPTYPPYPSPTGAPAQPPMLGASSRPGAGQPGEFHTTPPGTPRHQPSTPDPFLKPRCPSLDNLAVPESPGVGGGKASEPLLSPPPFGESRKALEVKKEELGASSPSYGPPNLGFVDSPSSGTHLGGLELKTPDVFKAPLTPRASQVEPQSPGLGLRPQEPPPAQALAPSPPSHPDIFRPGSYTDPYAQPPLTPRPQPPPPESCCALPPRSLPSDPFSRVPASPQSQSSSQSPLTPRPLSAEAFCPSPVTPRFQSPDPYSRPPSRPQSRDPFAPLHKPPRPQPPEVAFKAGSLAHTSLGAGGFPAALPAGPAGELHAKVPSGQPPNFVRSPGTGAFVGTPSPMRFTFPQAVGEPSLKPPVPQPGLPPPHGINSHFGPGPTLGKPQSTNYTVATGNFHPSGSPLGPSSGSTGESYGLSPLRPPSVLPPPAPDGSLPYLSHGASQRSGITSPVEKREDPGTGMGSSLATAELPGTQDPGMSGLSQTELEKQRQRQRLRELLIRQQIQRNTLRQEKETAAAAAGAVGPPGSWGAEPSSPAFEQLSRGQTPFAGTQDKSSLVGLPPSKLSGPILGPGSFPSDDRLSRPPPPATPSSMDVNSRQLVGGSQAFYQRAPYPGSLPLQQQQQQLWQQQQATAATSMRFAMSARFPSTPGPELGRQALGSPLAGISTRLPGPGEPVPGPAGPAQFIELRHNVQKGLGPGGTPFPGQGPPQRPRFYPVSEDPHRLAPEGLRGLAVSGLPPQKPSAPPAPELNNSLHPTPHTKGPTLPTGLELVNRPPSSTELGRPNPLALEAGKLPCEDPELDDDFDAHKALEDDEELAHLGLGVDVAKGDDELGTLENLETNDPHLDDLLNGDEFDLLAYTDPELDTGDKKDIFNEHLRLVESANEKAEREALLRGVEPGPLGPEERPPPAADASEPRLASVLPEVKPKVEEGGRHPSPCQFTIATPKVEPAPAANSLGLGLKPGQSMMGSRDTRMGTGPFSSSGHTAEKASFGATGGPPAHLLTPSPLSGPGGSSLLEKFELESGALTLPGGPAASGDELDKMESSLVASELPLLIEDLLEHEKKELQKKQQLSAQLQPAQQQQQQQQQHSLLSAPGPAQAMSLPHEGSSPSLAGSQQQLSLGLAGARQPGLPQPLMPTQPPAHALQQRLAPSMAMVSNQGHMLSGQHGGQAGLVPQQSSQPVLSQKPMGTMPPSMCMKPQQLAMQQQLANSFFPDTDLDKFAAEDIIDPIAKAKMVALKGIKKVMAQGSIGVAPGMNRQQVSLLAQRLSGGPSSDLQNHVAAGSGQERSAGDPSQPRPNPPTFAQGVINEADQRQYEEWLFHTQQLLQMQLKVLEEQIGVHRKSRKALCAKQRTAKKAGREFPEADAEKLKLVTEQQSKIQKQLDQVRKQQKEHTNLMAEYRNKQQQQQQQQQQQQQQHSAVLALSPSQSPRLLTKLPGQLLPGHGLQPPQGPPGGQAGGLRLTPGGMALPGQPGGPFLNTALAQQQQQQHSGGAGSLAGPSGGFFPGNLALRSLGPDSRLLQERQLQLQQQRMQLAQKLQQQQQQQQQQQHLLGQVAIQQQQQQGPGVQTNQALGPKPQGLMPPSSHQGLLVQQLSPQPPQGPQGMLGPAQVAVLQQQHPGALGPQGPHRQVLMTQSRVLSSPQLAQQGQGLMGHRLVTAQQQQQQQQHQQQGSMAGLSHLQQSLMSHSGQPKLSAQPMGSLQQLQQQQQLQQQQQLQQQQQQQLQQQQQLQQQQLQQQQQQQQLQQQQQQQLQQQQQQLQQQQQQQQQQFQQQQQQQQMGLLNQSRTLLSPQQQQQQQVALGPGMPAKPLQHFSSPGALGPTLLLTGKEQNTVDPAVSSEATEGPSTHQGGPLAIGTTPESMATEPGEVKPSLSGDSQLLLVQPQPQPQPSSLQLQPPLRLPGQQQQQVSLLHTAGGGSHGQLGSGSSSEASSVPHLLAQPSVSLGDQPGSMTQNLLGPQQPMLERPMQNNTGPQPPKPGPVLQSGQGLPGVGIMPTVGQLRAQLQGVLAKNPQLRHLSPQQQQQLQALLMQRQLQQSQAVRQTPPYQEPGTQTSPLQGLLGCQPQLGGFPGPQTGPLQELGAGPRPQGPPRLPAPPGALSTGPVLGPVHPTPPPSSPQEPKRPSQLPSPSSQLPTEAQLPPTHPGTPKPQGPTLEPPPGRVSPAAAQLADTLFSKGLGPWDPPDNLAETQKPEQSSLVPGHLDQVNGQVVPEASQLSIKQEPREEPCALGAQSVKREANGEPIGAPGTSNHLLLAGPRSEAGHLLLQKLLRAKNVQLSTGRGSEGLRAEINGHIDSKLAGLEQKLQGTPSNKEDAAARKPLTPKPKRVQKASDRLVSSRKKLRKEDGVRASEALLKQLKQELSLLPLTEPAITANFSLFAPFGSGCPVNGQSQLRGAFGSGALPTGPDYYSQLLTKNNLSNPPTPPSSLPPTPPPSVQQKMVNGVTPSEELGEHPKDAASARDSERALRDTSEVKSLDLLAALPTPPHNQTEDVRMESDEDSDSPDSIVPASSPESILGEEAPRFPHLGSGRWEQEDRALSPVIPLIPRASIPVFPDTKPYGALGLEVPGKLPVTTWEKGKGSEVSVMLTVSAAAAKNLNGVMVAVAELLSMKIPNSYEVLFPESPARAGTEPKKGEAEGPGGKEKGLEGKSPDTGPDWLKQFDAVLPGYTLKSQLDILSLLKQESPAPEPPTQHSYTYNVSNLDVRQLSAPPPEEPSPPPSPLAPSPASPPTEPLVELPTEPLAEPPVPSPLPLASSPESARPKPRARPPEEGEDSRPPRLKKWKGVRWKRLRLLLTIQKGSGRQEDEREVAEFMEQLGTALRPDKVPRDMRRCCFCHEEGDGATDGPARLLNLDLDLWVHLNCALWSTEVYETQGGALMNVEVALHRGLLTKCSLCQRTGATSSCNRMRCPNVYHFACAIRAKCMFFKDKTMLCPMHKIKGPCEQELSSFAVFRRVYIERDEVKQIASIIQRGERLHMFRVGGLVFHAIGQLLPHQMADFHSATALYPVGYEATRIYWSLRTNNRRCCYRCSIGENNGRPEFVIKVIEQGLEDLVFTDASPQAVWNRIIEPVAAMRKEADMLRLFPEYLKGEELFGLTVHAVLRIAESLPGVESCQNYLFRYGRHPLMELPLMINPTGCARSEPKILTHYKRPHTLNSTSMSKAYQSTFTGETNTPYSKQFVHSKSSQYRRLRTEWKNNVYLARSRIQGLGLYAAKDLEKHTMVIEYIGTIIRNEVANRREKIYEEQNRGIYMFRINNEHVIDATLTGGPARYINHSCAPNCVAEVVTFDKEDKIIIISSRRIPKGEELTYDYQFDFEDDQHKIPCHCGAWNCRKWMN

Target: Mll4 (histone H3-lysine 4-methyltransferase) (human (endogenous in HEK293)) (UniProt O14686)
Assay: co-IP; HEK293 cells transfected with Flag-Nrf1, lysed in RIPA buffer; immunoprecipitation with Mll4 antibody overnight, Protein A/G agarose beads; blot with antibody against Flag-tag

- binding: binds
B1: Flag-Nrf1 (nuclear respiratory factor 1) (protein, UniProt Q9WU00 1-503)
chain: MEEHGVTQTEHMATIEAHAVAQQVQQVHVATYTEHSMLSADEDSPSSPEDTSYDDSDILNSTAADEVTAHLAAAGPVGMAAAAAVATGKKRKRPHVFESNPSIRKRQQTRLLRKLRATLDEYTTRVGQQAIVLCISPSKPNPVFKVFGAAPLENVVRKYKSMILEDLESALAEHAPAPQEVNSELPPLTIDGIPVSVDKMTQAQLRAFIPEMLKYSTGRGKPGWGKESCKPIWWPEDIPWANVRSDVRTEEQKQRVSWTQALRTIVKNCYKQHGREDLLYAFEDQQTQTQATTTHSIAHLVPSQTVVQTFSNPDGTVSLIQVGTGATVATLADASELPTTVTVAQVNYSAVADGEVEQNWATLQGGEMTIQTTQASEATQAVASLAEAAVAASQEMQQGATVTMALNSEAAAHAVATLAEATLQGGGQIVLSGETAAAVGALTGVQDANGLVQIPVSMYQTVVTSLAQGNGPVQVAMAPVTTRISDSAVTMDGQAVEVVTLEQ
